Measurements taken from PMC11476549.
Results are given in words; binding and its absence hold for the method and conditions named. Binding seen in cells or lysates may run through a third protein. Some entries that bind do so weakly or less than the wild type.

Sequences of proteins named here, by UniProt entry; tags and fusion partners are left off. A change or cut given only in a name is not applied to a line headed by its entry.
UniProt Q9UPY5: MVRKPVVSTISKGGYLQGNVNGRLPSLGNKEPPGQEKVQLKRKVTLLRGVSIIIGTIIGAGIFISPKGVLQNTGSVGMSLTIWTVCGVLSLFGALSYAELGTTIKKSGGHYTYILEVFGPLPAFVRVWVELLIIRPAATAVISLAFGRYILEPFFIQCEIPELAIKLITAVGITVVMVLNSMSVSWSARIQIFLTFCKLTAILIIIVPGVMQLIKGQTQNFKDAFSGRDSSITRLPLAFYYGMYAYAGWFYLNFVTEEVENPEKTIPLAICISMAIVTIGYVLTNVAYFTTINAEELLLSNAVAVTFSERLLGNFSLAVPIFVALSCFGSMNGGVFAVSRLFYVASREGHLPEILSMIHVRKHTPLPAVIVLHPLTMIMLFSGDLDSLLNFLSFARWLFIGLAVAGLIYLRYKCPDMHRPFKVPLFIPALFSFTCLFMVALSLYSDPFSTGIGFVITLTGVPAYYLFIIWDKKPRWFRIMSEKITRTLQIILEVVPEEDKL

How the values were obtained:
Test in all cases: co-IP; myc-xCT (WT or mutant) precipitated with anti-c-Myc magnetic beads from lysates of COS-7 cells co-transfected with HA-4F2HC; lysis buffer 25 mM Tris, 0.15 M NaCl, 1 mM EDTA, 1% NP40, 5% glycerol, pH 7.4; 30 min at room temperature; blot probed with anti-HA
[1] = target: myc-K473Q xCT (SLC7A11), human (human) (UniProt Q9UPY5)
[2] = target: myc-K473R xCT (SLC7A11), human (human) (UniProt Q9UPY5)
[3] = target: myc-N314Q xCT (SLC7A11), human (human) (UniProt Q9UPY5)
[4] = target: myc-wildtype xCT (SLC7A11), human (human) (UniProt Q9UPY5)

binding [1]: binds
binding [2]: binds
binding [3]: binds
binding [4]: binds
Substance: HA-4F2HC (SLC3A2, CD98), human (from UniProt P08195 1-529)
